Results deposited as PubChem BioAssay AID743454 (Peter MacCallum Cancer Centre, 2014).
Purpose: 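Knock-downs lowering viability or raising caspase 3/7 activity in vorinostat-treated resistant cells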 (primary screen). System: human HCT116-VR colon cancer cells, selected for vorinostat resistance. Reagent: siRNA pool against human genes, 40 nM siRNA pool. Duration: vorinostat for 24 h, read-out about 72 h after transfection. Conditions: vorinostat at 2.5 µM final. Measured: 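Cell viability by CellTiter-Fluor and caspase 3/7 activity by luminescence, each scaled to mock wells per plate, duplicates averaged, then robust z-scored over all plates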. Reading the numbers: viability robust z-score: higher = more viable cells than screen typical; caspase robust z-score: higher = more caspase 3/7 activity than screen typical. Active means: 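Hits are knock-downs in viability class RV1/RV2 or caspase class CA1/CA2, excluding ones that killed cells in the no-drug cell-count arm; hits then retested with single siRNAs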.
The deposit covers about 18,000 reagents; this is an unselected part. In the full data, 450 (2.5%) got an active call. 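Single biological run; no consistent viability z cut-off exists, so the class columns, not z-scores, define the calls.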 Reagent sequences are not shown.

target gene | viability hit class | caspase hit class | viability robust z-score | caspase robust z-score | activity call
GAGE12I | no change | no change | 0.39 | 0.62 | inactive
FMN2 | no change | no change | 1.34 | 1.16 | inactive
GIMAP8 | no change | no change | -0.67 | -0.3 | inactive
FAM86C1P | no change | no change | -0.68 | -0.74 | inactive
LYRM1 | no change | no change | 0.35 | -0.73 | inactive
BCL9 | no change | no change | -0.4 | 2.01 | inactive
PEX7 | no change | no change | 0.8 | 0.48 | inactive
KLHL23 | no change | no change | 0.92 | -0.18 | inactive
FGFBP3 | no change | no change | 0.48 | -1.16 | inactive
SERPINB2 | no change | no change | 0.03 | 0.59 | inactive
TRPM3 | no change | no change | -0.46 | 0.91 | inactive
GK2 | no change | no change | 0.98 | 0.23 | inactive
ADAM12 | no change | no change | -0.32 | 0.66 | inactive
LURAP1L | no change | no change | 0.36 | 0.55 | inactive
CLDN9 | no change | no change | 1.77 | 3.44 | inactive
IGBP1 | no change | no change | -0.16 | 0.42 | inactive
XPNPEP2 | no change | no change | -0.09 | 3.13 | inactive
GRM6 | no change | no change | -0.56 | 3.24 | inactive
ZNG1C | no change | no change | 1.38 | -0.26 | inactive
C1QTNF1 | no change | no change | 1.27 | 0.91 | inactive
HBS1L | no change | no change | 0.48 | -0.48 | inactive
VEZT | no change | no change | -0.55 | -0.32 | inactive
WNT5B | no change | no change | 0.18 | -0.8 | inactive

Looked up above.
For “caspase hit class”, VEZT has no change
Result for FMN2 under “caspase robust z-score”: 1.16
